{"source": "paper PMC12040169", "about": "(PLOS Biology, 2025)", "note": "This is one part of the list."}
{"system": "T1, CTL2-GFP (C. trachomatis L2/434/Bu, GFP-expressing)", "T1 construct": "L2/434/Bu, GFP-expressing", "set-up": "species or system HeLa; Intracellular C. trachomatis growth in HeLa cells, bulk GFP fluorescence relative to DMSO", "conditions": "bulk GFP, single well; 28.5 h, 10 µM; inhibitor", "units": {"% of control remaining": "%"}}
{"smiles": "O=C1OCCN1S(=O)(=O)c1ccc(CN2CCN(Cc3ccc(S(=O)(=O)N4CCOC4=O)cc3)CC2)cc1", "note": "[CBK024729]", "% of control remaining": 130.643}
{"smiles": "O=C(COc1ccc(F)cc1)N1CCN(c2ncccn2)CC1", "note": "[CBK144499]", "% of control remaining": 117.868}
{"smiles": "O=C(CSCc1c(F)cccc1Cl)NCc1ccncc1", "note": "[CBK268381]", "% of control remaining": 137.724}
{"smiles": "CS(=O)(=O)N1CCc2cc(-c3csc(C4CC4)n3)ccc21", "note": "[CBK306347]", "% of control remaining": 153.087}
{"smiles": "CCCCc1ccc(NC(=N)Nc2nc(C)cc(C)n2)cc1", "note": "[CBK262967]", "% of control remaining": 49.2012}
{"smiles": "c1ccc(C(NCc2cncs2)C2CCCC2)cc1", "note": "(centres unmarked) [CBK304812]", "% of control remaining": 107.821}
{"smiles": "COc1ccc(-c2ccc3ccc(=O)[nH]c3n2)cc1C", "note": "[CBK073712]", "% of control remaining": 140.526}
{"smiles": "Cc1nc(C)c(C(=O)NCC2CCCOC2)s1", "note": "(centres unmarked) [CBK282194]", "% of control remaining": 104.211}
{"smiles": "Cc1onc(-c2ccccc2)c1C(=O)NC(=S)Nc1sc2c(c1C#N)CCC2", "note": "[CBK267492]", "% of control remaining": 153.586}
{"smiles": "Cc1cc(SCC(C)C)n2ncnc2n1", "note": "[CBK261808]", "% of control remaining": 102.232}
{"smiles": "CC(C)(CNC(=O)Cn1cc(C(=O)NC2CCCCC2)ccc1=O)c1cccc(F)c1", "note": "[CBK286110]", "% of control remaining": 117.093}
{"smiles": "c1ccn(CCOc2nccnc2-c2ccsc2)c1", "note": "[CBK106772]", "% of control remaining": 120.814}
{"smiles": "COc1ccc(CCC(=O)c2cnc3sc4c(n23)CCCCC4)cc1", "note": "[CBK016849]", "% of control remaining": 103.143}
{"smiles": "CC(=O)Nc1cccc(Oc2nccnc2-c2cc3ccccc3s2)c1", "note": "[CBK106784]", "% of control remaining": 100.937}
{"smiles": "CS(=O)(=O)Nc1cc2cccnc2nc1-c1ccccc1", "note": "[CBK085689]", "% of control remaining": 94.6761}
{"smiles": "Clc1ccc(-n2c(SCc3nc4ccccc4[nH]3)nnc2-c2ccncc2)cc1", "note": "[CBK267557]", "% of control remaining": 161.282}
{"smiles": "O=C1CC(c2cc(F)ccc2F)c2c(-c3ccc(Cl)cc3)n[nH]c2N1", "note": "(centres unmarked) [CBK288000]", "% of control remaining": 103.686}
{"smiles": "CCN(CCn1cccn1)c1nc2nonc2nc1N(C)C", "note": "[CBK306630]", "% of control remaining": 127.447}
{"smiles": "CC(=O)N1CCC2(C/C=C/C[C@H]3CN(C(=O)C4CCC4)CC[C@H]3NC(=O)CNC2=O)CC1", "note": "[CBK292108]", "% of control remaining": 112.11}
{"smiles": "COC(=O)c1sc2cc(NC(=S)NNC(=O)c3ccoc3C)ccc2c1Cl", "note": "[CBK266877]", "% of control remaining": 164.383}
{"smiles": "N#Cc1sc2nc(-c3ccncc3)ccc2c1N", "note": "[CBK288547]", "% of control remaining": 130.634}
{"smiles": "Cc1cc(C)c(S(=O)(=O)N2CCC(C(=O)Nc3ccc(C(N)=O)cc3)CC2)c(C)c1", "note": "[CBK266424]", "% of control remaining": 168.13}
{"smiles": "CC1CCN(S(=O)(=O)c2ccc(NC(=O)CN3CCOCC3)cc2)CC1", "note": "[CBK268339]", "% of control remaining": 157.854}
{"smiles": "COc1ccc(CN[C@H]2[C@H](O)[C@@H](N3CCN(C(C)=O)CC3)[C@@H]3OC[C@H]2O3)cc1", "note": "[CBK288808]", "% of control remaining": 117.688}
{"smiles": "O=C(NC1CCCCC1)N1Cc2nc[nH]c2C[C@H]1c1nc(-c2ccc3c(c2)OCO3)no1", "note": "[CBK289000]", "% of control remaining": 126.345}
{"smiles": "O=C(O)C1CCN(c2ncnc3sc4c(c23)CCC4)CC1", "note": "[CBK268326]", "% of control remaining": 126.194}
{"smiles": "NC(=O)c1c(NC(=O)c2ccc(-c3ccccc3)cc2)sc2c1CCC2", "note": "[CBK265747]", "% of control remaining": 150.677}
{"smiles": "O=C(Oc1ccccc1O)c1cccc(Cl)c1", "note": "[CBK090130]", "% of control remaining": 57.2094}
{"smiles": "CC1CCCN(C(=O)N(C)C)C1", "note": "(centres unmarked) [CBK023175]", "% of control remaining": 135.134}
{"smiles": "Sc1nnc(Cc2cccc3ccccc23)n1-c1ccccc1", "note": "[CBK265052]", "% of control remaining": 88.5217}
{"smiles": "O=C(c1cc(F)cc(F)c1)N1CCn2c(nnc2C2CC2)C1", "note": "[CBK283772]", "% of control remaining": 120.908}
{"smiles": "CCOC(=O)c1sc(-c2ccc3c(c2)OCO3)nc1O", "note": "[CBK078565]", "% of control remaining": 160.868}
{"smiles": "CCc1nn(CC(=O)NC(C)(C)C)c(=O)c2cc3sc(C)cc3n12", "note": "[CBK284124]", "% of control remaining": 108.709}
{"smiles": "COc1ccc(-c2nc(-c3ccc(C(=O)N4CCOCC4)cc3)cnc2N)cc1", "note": "[CBK116509]", "% of control remaining": 124.584}
{"smiles": "CCOC(=O)c1ccc(-c2ccc(C(=O)Nc3ccc(-c4nc5ccccc5o4)c(O)c3)o2)cc1", "note": "[CBK263428]", "% of control remaining": 133.669}
{"smiles": "COc1ccc(-c2cc(-c3ccccc3)nc(N/N=C/c3ccc(O)c(C)c3O)n2)cc1", "note": "[CBK261721]", "% of control remaining": 104.217}
{"smiles": "CCc1ccc2occ(CC(=O)Nc3ccc(C(=O)OC)cc3)c2c1", "note": "[CBK268318]", "% of control remaining": 95.2787}
{"smiles": "CC(C)c1ccc(NC(=O)O[C@@H]2CO[C@H]3[C@@H]2OC[C@@H]3NC(=O)c2cncnc2)cc1", "note": "[CBK289480]", "% of control remaining": 108.694}
{"smiles": "CSc1nc(NC(=O)C2CCCO2)cc(N2CCNCC2)n1", "note": "(centres unmarked) [CBK026740T]", "% of control remaining": 134.615}
{"smiles": "CCOC(=O)N1CCC(Nc2nc3ccccc3nc2OCc2cc(C)on2)CC1", "note": "[CBK171825]", "% of control remaining": 152.854}
{"smiles": "O=C1Nc2ccc([N+](=O)[O-])cc2C1(O)N1CCCCC1", "note": "(centres unmarked) [CBK262496]", "% of control remaining": 121.187}
{"smiles": "O=C(Nc1ccc(F)cc1)c1ccc(NS(=O)(=O)Cc2ccccc2[N+](=O)[O-])cc1", "note": "[CBK050405]", "% of control remaining": 104.239}
{"smiles": "Cc1ccc(C2(CN3CCN(Cc4ncc[nH]4)CC3)CC2)cc1", "note": "[CBK283306]", "% of control remaining": 77.6431}
{"smiles": "CC(NC(=O)COc1ccc(Cl)cc1Cl)C(=O)O", "note": "(centres unmarked) [CBK261425]", "% of control remaining": 100}
{"smiles": "CCOC(=O)[C@H]1CC[C@]2(CC1)CNC(=O)c1cc(Cl)ccc1O2", "note": "[CBK284849]", "% of control remaining": 110.08}
{"smiles": "O=C(c1ncoc1-c1ccc(F)cc1)N1CCN2CCCCC2C1", "note": "(centres unmarked) [CBK282400]", "% of control remaining": 133.322}
{"smiles": "CN(C)S(=O)(=O)N(CC(=O)Nc1cccnc1)c1ccccc1", "note": "[CBK267958]", "% of control remaining": 80.0065}
{"smiles": "CN(c1ccc(C(=O)Nc2ccc(S(=O)(=O)N3CCCC3)cc2)cc1)S(=O)(=O)c1ccccc1", "note": "[CBK266896]", "% of control remaining": 69.0828}
{"smiles": "COc1ccc(C(=O)OC(C)(C)C)c(-c2cncc(N3CCN(CCO)CC3)n2)c1", "note": "[CBK037239]", "% of control remaining": 225.995}
{"smiles": "CCOc1ccc(CC(=O)Nc2ncccc2OCCCC#N)cc1", "note": "[CBK304062]", "% of control remaining": 123.166}
